Measurements from PubChem BioAssay AID254 (DTP/NCI, 2004).
The list is a part of this screen's results and no random one: it gathers some chemical classes. Other doses and runs of a compound may be missing. T/C is the treated group as % of the vehicle group. Some doses have a count of surviving animals in place of a T/C: the source holds a T/C of zero for them, seemingly a mark for toxic or unscored doses. Some survivor counts are full or nearly so, which does not show that the dose was tolerated: the source hardly ever lists a survival T/C far under the control, and the zero likely stands for such cases as well. Counts of survivors are from the toxicity check (mostly the fifth day) where no day follows; animals may have died later. Schedules are NCI's codes, read here as Q, the interval in days (D) or hours (H), X, the number of doses. For survival time, the PubChem record calls one and a half times the control and up active, and a quarter to a half above the control has no call in these data; cut-offs in other NCI protocols can differ. Some doses were run more than once; their values stand side by side, smallest first. Some T/C values carry the count of animals alive at the toxicity check (mostly the fifth day); without a count or a note in brackets, all were alive then.

Tested on: L1210 leukemia iv in BDF1 mice, survival T/C
Experiment: NCI In Vivo Anticancer Drug Screen. Data for tumor model L1210 Leukemia (intravenous) in B6D2F1 (BDF1) mice
Details: T/C endpoint: mean survival time, higher T/C = longer survival
Description: The antitumor activity of compounds was measured in mice bearing transplantable tumors. Survival or tumor size were measured and the results are expressed as the measurement made in the treated group (T) divided by the measurement made in the vehicle treated control group (C). The tumor model used in this assay is L1210 Leukemia (intravenous) in B6D2F1 (BDF1) mice

[1] = dose: 100.0 mg/kg/injection, schedule: Q07DX004 (ip), vehicle: clinical formulation
[2] = dose: 150.0 mg/kg/injection, schedule: Q07DX008 (ip), vehicle: clinical formulation

## NC(=O)c1[nH]cnc1/N=N\N(CCCl)CCCl
dose: 6.6 mg/kg/injection, schedule: Q02DX008 (ip), vehicle: clinical formulation
  T/C: 97 % of control
dose: 7.5 mg/kg/injection, schedule: Q03HX032 (ip), vehicle: clinical formulation
  T/C: 123 % of control
dose: 10.0 mg/kg/injection, schedule: Q02DX008 (ip), vehicle: clinical formulation
  T/C: 100 % of control
dose: 11.0 mg/kg/injection, schedule: Q03HX032 (ip), vehicle: clinical formulation
  T/C: 210 % of control
dose: 13.0 mg/kg/injection, schedule: Q01DX015 (ip), vehicle: clinical formulation
  T/C: 110 % of control
dose: 15.0 mg/kg/injection, schedule: Q02DX008 (ip), vehicle: clinical formulation
  T/C: 112 % of control
dose: 17.0 mg/kg/injection, schedule: Q03HX032 (ip), vehicle: clinical formulation
  T/C: 248 % of control
dose: 20.0 mg/kg/injection, schedule: Q01DX015 (ip), vehicle: clinical formulation
  T/C: 134 % of control
dose: 22.5 mg/kg/injection, schedule: Q02DX008 (ip), vehicle: clinical formulation
  T/C: 129 % of control
dose: 26.0 mg/kg/injection, schedule: Q03HX032 (ip), vehicle: clinical formulation
  T/C: 582 % of control
dose: 27.0 mg/kg/injection, schedule: Q01DX001 (ip), vehicle: other, evaluated on day 3
  T/C: 133 % of control
dose: 27.0 mg/kg/injection, schedule: Q01DX001 (ip), vehicle: other, evaluated on day 60
  T/C: 133 % of control
dose: 30.0 mg/kg/injection, schedule: Q01DX015 (ip), vehicle: clinical formulation
  T/C: 163 % of control
dose: 34.0 mg/kg/injection, schedule: Q02DX008 (ip), vehicle: clinical formulation
  T/C: 131 % of control
dose: 38.0 mg/kg/injection, schedule: Q03HX032 (ip), vehicle: clinical formulation
  T/C: 487 % of control
dose: 45.0 mg/kg/injection, schedule: Q01DX015 (ip), vehicle: clinical formulation
  T/C: 331 % of control
dose: 53.0 mg/kg/injection, schedule: Q01DX001 (ip), vehicle: Klucel (hydroxypropylcellulose) (HPC)
  T/C: 163 % of control
dose: 53.0 mg/kg/injection, schedule: Q01DX001 (ip), vehicle: other, evaluated on day 3
  T/C: 163, 179, 190 % of control
dose: 53.0 mg/kg/injection, schedule: Q01DX001 (ip), vehicle: other, evaluated on day 60
  T/C: 179 and 190 % of control
dose: 60.0 mg/kg/injection, schedule: Q04DX004 (ip), vehicle: clinical formulation
  T/C: 187 % of control
dose: 67.0 mg/kg/injection, schedule: Q07DX004 (ip), vehicle: clinical formulation
  T/C: 187, 192, 221 % of control
dose: 67.0 mg/kg/injection, schedule: Q07DX006 (ip), vehicle: clinical formulation
  T/C: 187, 195, 204 % of control
dose: 67.0 mg/kg/injection, schedule: Q07DX008 (ip), vehicle: clinical formulation
  T/C: 176, 187, 197 % of control
dose: 67.0 mg/kg/injection, schedule: Q07DX010 (ip), vehicle: clinical formulation
  T/C: 195, 196, 217 % of control
dose: 68.0 mg/kg/injection, schedule: Q01DX015 (ip), vehicle: clinical formulation
  T/C: 510 % of control
dose: 83.0 mg/kg/injection, schedule: Q01DX001 (ip), vehicle: clinical formulation, evaluated on day 3
  T/C: 229 % of control
dose: 83.0 mg/kg/injection, schedule: Q01DX001 (ip), vehicle: clinical formulation, evaluated on day 60
  T/C: 229 % of control
dose: 90.0 mg/kg/injection, schedule: Q04DX004 (ip), vehicle: clinical formulation
  T/C: 376 % of control
[1]
  T/C: 313 and 817 % of control
  survivor count: 10 of 10
dose: 100.0 mg/kg/injection, schedule: Q07DX006 (ip), vehicle: clinical formulation
  T/C: 304, 539, 751 % of control
dose: 100.0 mg/kg/injection, schedule: Q07DX008 (ip), vehicle: clinical formulation
  T/C: 390, 687, 732 % of control
dose: 100.0 mg/kg/injection, schedule: Q07DX010 (ip), vehicle: clinical formulation
  T/C: 272, 387, 480 % of control
dose: 106.0 mg/kg/injection, schedule: Q01DX001 (ip), vehicle: Klucel (hydroxypropylcellulose) (HPC)
  T/C: 197 % of control
dose: 106.0 mg/kg/injection, schedule: Q01DX001 (ip), vehicle: other, evaluated on day 3
  T/C: 197, 212, 230 % of control
dose: 106.0 mg/kg/injection, schedule: Q01DX001 (ip), vehicle: other, evaluated on day 60
  T/C: 212 and 230 % of control
dose: 120.0 mg/kg/injection, schedule: Q01DX001 (ip), vehicle: clinical formulation
  T/C: 231 % of control
dose: 120.0 mg/kg/injection, schedule: Q01DX001 (ip), vehicle: other, evaluated on day 3
  T/C: 197 % of control
dose: 120.0 mg/kg/injection, schedule: Q01DX001 (ip), vehicle: other, evaluated on day 60
  T/C: 197 % of control
dose: 121.0 mg/kg/injection, schedule: Q01DX001 (ip), vehicle: clinical formulation, evaluated on day 3
  T/C: 411 % of control
dose: 121.0 mg/kg/injection, schedule: Q01DX001 (ip), vehicle: clinical formulation, evaluated on day 60
  T/C: 411 % of control
dose: 135.0 mg/kg/injection, schedule: Q04DX004 (ip), vehicle: clinical formulation
  T/C: 514 % of control
dose: 150.0 mg/kg/injection, schedule: Q07DX004 (ip), vehicle: clinical formulation
  T/C: 353, 521, 861 % of control
dose: 150.0 mg/kg/injection, schedule: Q07DX006 (ip), vehicle: clinical formulation
  T/C: 771, 883, 931 % of control
[2]
  T/C: 146 and 804 % of control
  survivor count: 10 of 10
dose: 150.0 mg/kg/injection, schedule: Q07DX010 (ip), vehicle: clinical formulation
  T/C: 441, 694, 708 % of control
dose: 159.0 mg/kg/injection, schedule: Q01DX001 (ip), vehicle: Klucel (hydroxypropylcellulose) (HPC)
  T/C: 223 % of control
dose: 159.0 mg/kg/injection, schedule: Q01DX001 (ip), vehicle: other, evaluated on day 3
  T/C: 223, 235, 250 % of control
dose: 159.0 mg/kg/injection, schedule: Q01DX001 (ip), vehicle: other, evaluated on day 60
  T/C: 235 and 250 % of control
dose: 180.0 mg/kg/injection, schedule: Q01DX001 (ip), vehicle: clinical formulation
  T/C: 310 % of control
dose: 180.0 mg/kg/injection, schedule: Q01DX001 (ip), vehicle: other, evaluated on day 3
  T/C: 231 % of control
dose: 180.0 mg/kg/injection, schedule: Q01DX001 (ip), vehicle: other, evaluated on day 60
  T/C: 231 % of control
dose: 185.0 mg/kg/injection, schedule: Q01DX001 (ip), vehicle: clinical formulation, evaluated on day 3
  T/C: 509 % of control
dose: 185.0 mg/kg/injection, schedule: Q01DX001 (ip), vehicle: clinical formulation, evaluated on day 60
  T/C: 509 % of control
dose: 202.0 mg/kg/injection, schedule: Q04DX004 (ip), vehicle: clinical formulation
  T/C: 310 % of control
dose: 212.0 mg/kg/injection, schedule: Q01DX001 (ip), vehicle: Klucel (hydroxypropylcellulose) (HPC)
  T/C: 221 % of control
dose: 212.0 mg/kg/injection, schedule: Q01DX001 (ip), vehicle: other, evaluated on day 3
  T/C: 221, 254, 283 % of control
dose: 212.0 mg/kg/injection, schedule: Q01DX001 (ip), vehicle: other, evaluated on day 60
  T/C: 254 and 283 % of control
dose: 225.0 mg/kg/injection, schedule: Q07DX004 (ip), vehicle: clinical formulation
  T/C: 377 [9 of 10 alive], 404, 764 % of control [9 of 10 alive]
dose: 225.0 mg/kg/injection, schedule: Q07DX006 (ip), vehicle: clinical formulation
  T/C: 347, 353, 378 % of control
dose: 225.0 mg/kg/injection, schedule: Q07DX008 (ip), vehicle: clinical formulation
  T/C: 465, 469, 531 % of control
dose: 225.0 mg/kg/injection, schedule: Q07DX010 (ip), vehicle: clinical formulation
  T/C: 412, 421, 439 % of control
dose: 265.0 mg/kg/injection, schedule: Q01DX001 (ip), vehicle: Klucel (hydroxypropylcellulose) (HPC)
  T/C: 270 % of control
dose: 265.0 mg/kg/injection, schedule: Q01DX001 (ip), vehicle: other, evaluated on day 3
  T/C: 270, 280, 295 % of control
dose: 265.0 mg/kg/injection, schedule: Q01DX001 (ip), vehicle: other, evaluated on day 60
  T/C: 280 and 295 % of control
dose: 270.0 mg/kg/injection, schedule: Q01DX001 (ip), vehicle: clinical formulation
  T/C: 182 % of control
dose: 270.0 mg/kg/injection, schedule: Q01DX001 (ip), vehicle: other, evaluated on day 3
  T/C: 309 % of control
dose: 270.0 mg/kg/injection, schedule: Q01DX001 (ip), vehicle: other, evaluated on day 60
  T/C: 309 % of control
dose: 276.0 mg/kg/injection, schedule: Q01DX001 (ip), vehicle: clinical formulation, evaluated on day 3
  T/C: 735 % of control
dose: 276.0 mg/kg/injection, schedule: Q01DX001 (ip), vehicle: clinical formulation, evaluated on day 60
  T/C: 735 % of control
dose: 306.0 mg/kg/injection, schedule: Q04DX004 (ip), vehicle: clinical formulation
  T/C: 136 % of control
dose: 318.0 mg/kg/injection, schedule: Q01DX001 (ip), vehicle: other, evaluated on day 3
  T/C: 297 % of control
dose: 318.0 mg/kg/injection, schedule: Q01DX001 (ip), vehicle: other, evaluated on day 60
  T/C: 297 % of control
dose: 371.0 mg/kg/injection, schedule: Q01DX001 (ip), vehicle: other, evaluated on day 3
  T/C: 349 % of control
dose: 371.0 mg/kg/injection, schedule: Q01DX001 (ip), vehicle: other, evaluated on day 60
  T/C: 350 % of control
dose: 400.0 mg/kg/injection, schedule: Q01DX001 (ip), vehicle: other, evaluated on day 3
  T/C: 297 % of control
dose: 400.0 mg/kg/injection, schedule: Q01DX001 (ip), vehicle: other, evaluated on day 60
  T/C: 297 % of control
dose: 405.0 mg/kg/injection, schedule: Q01DX001 (ip), vehicle: clinical formulation
  survivor count: 3 of 10
dose: 600.0 mg/kg/injection, schedule: Q01DX001 (ip), vehicle: other, evaluated on day 3
  T/C: 413 % of control
dose: 600.0 mg/kg/injection, schedule: Q01DX001 (ip), vehicle: other, evaluated on day 60
  T/C: 413 % of control
dose: 606.0 mg/kg/injection, schedule: Q01DX001 (ip), vehicle: clinical formulation
  survivor count: 3 of 10
